One assay addresses T1, GFP-CHMP2A (UniProt O43633).
T1 sequence: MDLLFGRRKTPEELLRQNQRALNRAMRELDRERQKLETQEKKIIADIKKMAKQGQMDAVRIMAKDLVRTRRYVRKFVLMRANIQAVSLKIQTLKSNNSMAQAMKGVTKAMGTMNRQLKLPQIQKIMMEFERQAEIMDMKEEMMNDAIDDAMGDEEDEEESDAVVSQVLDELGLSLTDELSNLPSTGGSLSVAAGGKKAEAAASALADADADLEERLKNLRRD
Kind of assay: co-IP; transfected HeLa cells treated with 1 mM DSP cross-linker, quenched with Tris-HCl, lysed, GFP-Trap; blots with anti-Myc and anti-GFP; also in Arl4A-knockdown cells (Fig. 8c).

In a further assay the target is T2, CHMP6 (UniProt Q96FZ7).
T2 sequence: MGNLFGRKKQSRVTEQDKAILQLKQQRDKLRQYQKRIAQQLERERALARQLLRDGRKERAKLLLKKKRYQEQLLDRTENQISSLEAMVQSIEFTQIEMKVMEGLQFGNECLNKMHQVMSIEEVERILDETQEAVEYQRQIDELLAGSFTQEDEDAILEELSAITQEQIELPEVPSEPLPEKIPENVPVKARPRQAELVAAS
In words: co-IP; Supplemental Fig. 16; as for CHMP2A (Fig. 8b, c), details not shown.

In another assay the target is T3, USP8-HA (UniProt P40818).
T3 sequence: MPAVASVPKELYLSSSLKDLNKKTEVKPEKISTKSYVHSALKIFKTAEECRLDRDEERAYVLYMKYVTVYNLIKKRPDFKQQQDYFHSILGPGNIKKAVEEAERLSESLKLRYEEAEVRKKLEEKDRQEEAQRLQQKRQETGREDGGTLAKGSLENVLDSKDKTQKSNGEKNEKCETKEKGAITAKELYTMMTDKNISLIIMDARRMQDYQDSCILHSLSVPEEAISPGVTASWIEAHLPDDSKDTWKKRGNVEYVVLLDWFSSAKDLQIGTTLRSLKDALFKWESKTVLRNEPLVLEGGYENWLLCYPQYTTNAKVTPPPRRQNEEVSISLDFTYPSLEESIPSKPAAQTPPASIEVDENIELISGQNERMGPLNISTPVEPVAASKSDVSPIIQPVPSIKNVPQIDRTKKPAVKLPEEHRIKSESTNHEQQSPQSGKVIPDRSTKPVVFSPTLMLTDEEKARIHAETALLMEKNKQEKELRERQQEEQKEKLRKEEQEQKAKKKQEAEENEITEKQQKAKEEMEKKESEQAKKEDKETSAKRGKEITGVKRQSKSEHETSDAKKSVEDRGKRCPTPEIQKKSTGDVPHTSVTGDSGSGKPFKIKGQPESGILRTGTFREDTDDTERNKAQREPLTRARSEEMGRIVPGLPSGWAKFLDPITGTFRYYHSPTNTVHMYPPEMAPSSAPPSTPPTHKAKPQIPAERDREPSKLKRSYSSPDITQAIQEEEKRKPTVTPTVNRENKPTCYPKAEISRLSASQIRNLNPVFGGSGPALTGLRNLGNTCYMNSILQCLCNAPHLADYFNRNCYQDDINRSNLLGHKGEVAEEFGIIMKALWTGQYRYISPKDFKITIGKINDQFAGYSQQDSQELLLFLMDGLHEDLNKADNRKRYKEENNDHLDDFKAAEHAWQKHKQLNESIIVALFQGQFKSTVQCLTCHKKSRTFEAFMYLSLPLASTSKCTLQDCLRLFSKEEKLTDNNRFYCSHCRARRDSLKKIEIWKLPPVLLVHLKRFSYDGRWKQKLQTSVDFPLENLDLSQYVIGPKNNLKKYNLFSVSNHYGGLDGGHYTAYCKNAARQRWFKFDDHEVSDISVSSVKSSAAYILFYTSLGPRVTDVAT
In words: co-IP; lysates of transfected 293T cells, HA beads; blots with anti-HA, anti-mCherry and anti-Arl4A; with and without Arl4A overexpression.

A further assay deals with T4, AMSH-HA (UniProt O95630).
T4 sequence: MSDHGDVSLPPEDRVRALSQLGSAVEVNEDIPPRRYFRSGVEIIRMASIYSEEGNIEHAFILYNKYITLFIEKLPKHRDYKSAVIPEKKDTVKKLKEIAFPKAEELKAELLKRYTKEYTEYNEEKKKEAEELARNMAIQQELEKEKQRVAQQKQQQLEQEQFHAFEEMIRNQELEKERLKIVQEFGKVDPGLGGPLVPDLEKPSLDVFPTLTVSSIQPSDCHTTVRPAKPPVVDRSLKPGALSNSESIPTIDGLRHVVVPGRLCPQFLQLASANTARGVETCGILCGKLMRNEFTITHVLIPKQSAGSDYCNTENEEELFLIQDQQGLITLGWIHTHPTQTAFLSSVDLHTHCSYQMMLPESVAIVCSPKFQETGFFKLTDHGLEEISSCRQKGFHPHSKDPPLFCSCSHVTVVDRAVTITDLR
Described as above.

In assay [1] the target is T5, VPS36 precipitated with HA beads (Fig. 4c) (UniProt Q86VN1).
T5 sequence: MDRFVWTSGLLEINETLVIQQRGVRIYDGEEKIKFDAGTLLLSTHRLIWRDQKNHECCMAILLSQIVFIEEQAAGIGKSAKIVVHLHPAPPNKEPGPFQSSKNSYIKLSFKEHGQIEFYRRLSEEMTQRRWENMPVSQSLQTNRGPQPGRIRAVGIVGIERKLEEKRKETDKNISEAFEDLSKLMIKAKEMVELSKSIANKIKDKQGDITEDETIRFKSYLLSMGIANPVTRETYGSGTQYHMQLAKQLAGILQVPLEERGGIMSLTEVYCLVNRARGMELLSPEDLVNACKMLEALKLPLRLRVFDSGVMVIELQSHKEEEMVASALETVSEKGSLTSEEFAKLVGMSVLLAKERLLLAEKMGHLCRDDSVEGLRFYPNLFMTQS
Kind of assay: co-IP; lysates of transfected HeLa cells, HA beads; blots with anti-HA and anti-Arl4A.

The target in the next assay is T6, VPS36-WT-Myc (UniProt Q86VN1).
T6 sequence: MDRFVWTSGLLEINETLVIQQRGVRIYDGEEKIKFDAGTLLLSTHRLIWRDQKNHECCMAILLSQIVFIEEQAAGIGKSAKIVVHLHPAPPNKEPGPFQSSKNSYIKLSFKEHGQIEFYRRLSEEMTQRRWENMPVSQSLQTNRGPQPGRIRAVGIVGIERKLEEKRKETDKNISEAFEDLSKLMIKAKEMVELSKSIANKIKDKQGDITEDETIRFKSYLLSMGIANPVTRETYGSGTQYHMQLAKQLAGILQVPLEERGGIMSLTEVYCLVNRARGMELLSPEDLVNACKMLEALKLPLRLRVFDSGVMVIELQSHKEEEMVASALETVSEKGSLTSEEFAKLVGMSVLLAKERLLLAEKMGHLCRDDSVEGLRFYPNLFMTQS
In words: co-IP; lysates of transfected HeLa cells, Myc-Trap beads; blots with anti-Myc and anti-Arl4A; with and without EGF treatment (Fig. 5c).

No constants are given. Whether binding was seen depends on the method and setting. In cells and extracts the contact can be indirect. Some binding calls cover weakened binding; strength is not graded here. Tags and fused reporters may be left off the sequences shown.

B1: VPS36-WT-Myc (protein, UniProt Q86VN1 1-386)
chain: MDRFVWTSGLLEINETLVIQQRGVRIYDGEEKIKFDAGTLLLSTHRLIWRDQKNHECCMAILLSQIVFIEEQAAGIGKSAKIVVHLHPAPPNKEPGPFQSSKNSYIKLSFKEHGQIEFYRRLSEEMTQRRWENMPVSQSLQTNRGPQPGRIRAVGIVGIERKLEEKRKETDKNISEAFEDLSKLMIKAKEMVELSKSIANKIKDKQGDITEDETIRFKSYLLSMGIANPVTRETYGSGTQYHMQLAKQLAGILQVPLEERGGIMSLTEVYCLVNRARGMELLSPEDLVNACKMLEALKLPLRLRVFDSGVMVIELQSHKEEEMVASALETVSEKGSLTSEEFAKLVGMSVLLAKERLLLAEKMGHLCRDDSVEGLRFYPNLFMTQS
Regarding B1, the binding entry with GFP-CHMP2A and with CHMP6 was “binds” throughout.

B2: CHMP2A-mCherry (protein, UniProt O43633 1-222)
chain: MDLLFGRRKTPEELLRQNQRALNRAMRELDRERQKLETQEKKIIADIKKMAKQGQMDAVRIMAKDLVRTRRYVRKFVLMRANIQAVSLKIQTLKSNNSMAQAMKGVTKAMGTMNRQLKLPQIQKIMMEFERQAEIMDMKEEMMNDAIDDAMGDEEDEEESDAVVSQVLDELGLSLTDELSNLPSTGGSLSVAAGGKKAEAAASALADADADLEERLKNLRRD
As to B2, the binding result with USP8-HA and with AMSH-HA was “binds” each time.

B3: untagged Arl4A Q79L (pSG5) (protein, UniProt P40617 1-200)
chain: MGNGLSDQTSILSNLPSFQSFHIVILGLDCAGKTTVLYRLQFNEFVNTVPTKGFNTEKIKVTLGNSKTVTFHFWDVGGLEKLRPLWKSYTRCTDGIVFVVDSVDVERMEEAKTELHKITRISENQGVPVLIVANKQDLRNSLSLSEIEKLLAMGELSSSTPWHLQPTCAIIGDGLKEGLEKLHDMIIKRRKMLRQQKKKR
Take B3: the binding result in assay [1] is listed as “binds”.

B4: untagged Arl4A WT (pSG5) (protein, UniProt P40617 1-200)
chain: MGNGLSDQTSILSNLPSFQSFHIVILGLDCAGKTTVLYRLQFNEFVNTVPTKGFNTEKIKVTLGNSKTVTFHFWDVGGQEKLRPLWKSYTRCTDGIVFVVDSVDVERMEEAKTELHKITRISENQGVPVLIVANKQDLRNSLSLSEIEKLLAMGELSSSTPWHLQPTCAIIGDGLKEGLEKLHDMIIKRRKMLRQQKKKR
On to B4, for which the binding entry (in assay [1]; with VPS36-WT-Myc) was “binds” each time.

B5: untagged Arl4A T51N (pSG5) (protein, UniProt P40617 1-200)
chain: MGNGLSDQTSILSNLPSFQSFHIVILGLDCAGKTTVLYRLQFNEFVNTVPNKGFNTEKIKVTLGNSKTVTFHFWDVGGQEKLRPLWKSYTRCTDGIVFVVDSVDVERMEEAKTELHKITRISENQGVPVLIVANKQDLRNSLSLSEIEKLLAMGELSSSTPWHLQPTCAIIGDGLKEGLEKLHDMIIKRRKMLRQQKKKR
In the case of B5, in assay [1], the binding entry is “binds”.

These data come from publication PMC10687025.
